Source: PubChem BioAssay AID1224828 (NIAID, 2016)

Assay: 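Regulators linking TLR4 signalling to p65 nuclear translocation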 (primary screen)
System: mouse RAW264.7 G9 macrophage reporter cells (GFP-p65, Tnf promoter-mCherry)
Reagent: siRNA pool against mouse genes, 100 nM
Time to read-out: 2 days siRNA transfection, then 40 min LPS before fixation
Treatment: LPS (Salmonella minnesota R595) at 10 ng/ml
Measured: 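Imaged p65 nuclear translocation ratio, normalised to the plate median, converted to robust z-scores and averaged across two replicates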
Scale: p65 translocation robust z-score: higher = more nuclear NF-kappaB p65 after LPS than the plate median; nuclear/cytoplasmic p65 ratio: higher = more nuclear NF-kappaB p65
Active means: 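Active if robust z is above 3.3 (negative regulators) or below -1.56, the Tlr4 control median (positive regulators); activity score 50 or more; control wells not called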
Meaning of the calls: active = hit (p65 shift raised or lowered); inactive = no clear change
In all, the deposit lists about 17,000 reagents; below is a part drawn at random. 762 of them (4.5%) were called active. 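Active calls include both raised and lowered p65 entry, mostly lowered; wells with fewer than 50 cells lack a z-score.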 Raw values vary from plate to plate and are shown uncorrected. Unmarked entries are inactive. Some reagents were tested in more than one well and are listed for each. Reagent sequences are not shown.

no.	target gene	p65 translocation robust z-score	nuclear/cytoplasmic p65 ratio, rep 1	nuclear/cytoplasmic p65 ratio, rep 2	low cell count flag
1	Lpo (lactoperoxidase)	1.61	1.94	1.81	enough cells to score
2	Mat1a (methionine adenosyltransferase 1A)	-0.21	1.41	1.32	enough cells to score
3	C630004L07Rik (RIKEN cDNA C630004L07 gene)	2.22	1.73	1.83	enough cells to score
4	Porcn (porcupine O-acyltransferase)	1.55	1.71	1.61	enough cells to score
5	Cd53 (CD53 antigen)	0.27	1.52	1.41	enough cells to score
6	Gzmm (granzyme M (lymphocyte met-ase 1))	-2.13 (active)	1.3	1.16	enough cells to score
7	4930483J18Rik (RIKEN cDNA 4930483J18 gene)		0	0	fewer than 50 cells per well; well left out of scoring
8	Grk1 (G protein-coupled receptor kinase 1)	1.76	2.04	1.55	enough cells to score
9	Grk1 (G protein-coupled receptor kinase 1)		1.56	1.54	fewer than 50 cells per well; well left out of scoring
10	B4galnt1 (beta-1,4-N-acetyl-galactosaminyl transferase 1)	1.37	1.51	1.64	enough cells to score
11	Or2b4 (olfactory receptor family 2 subfamily B member 4)	0.78	1.84	1.43	enough cells to score
12	Stc1 (stanniocalcin 1)	-0.25	1.37	1.21	enough cells to score
13	Mad2l1bp (MAD2L1 binding protein)	2.15	2.05	1.86	enough cells to score
14	Ap1g2 (adaptor protein complex AP-1, gamma 2 subunit)	-1.17	1.45	1.48	enough cells to score
15	Parm1 (prostate androgen-regulated mucin-like protein 1)	-0.98	1.34	1.36	enough cells to score
16	Unc93a (unc-93 homolog A)		1.29	1.23	fewer than 50 cells per well; well left out of scoring
17	Mrtfa (myocardin related transcription factor A)	-0.89	1.27	1.28	enough cells to score
18	Or2b7 (olfactory receptor family 2 subfamily B member 7)		1.33	1.47	fewer than 50 cells per well; well left out of scoring
19	Mutyh (mutY DNA glycosylase)	0.03	1.42	1.38	enough cells to score
20	Alox15 (arachidonate 15-lipoxygenase)	0.64	1.72	1.76	enough cells to score
21	Cirsr (corepressor of RBPJ and splicing regulator)	0.09	1.39	1.43	enough cells to score
22	Edn2 (endothelin 2)	-0.42	1.71	1.26	enough cells to score
23	Sult2a8	-0.22	1.35	1.43	enough cells to score
24	Pon1 (paraoxonase 1)	0.26	1.54	1.43	enough cells to score
25	Il36g (interleukin 36G)	-0.28	1.41	1.37	enough cells to score
26	Prl7a1 (prolactin family 7, subfamily a, member 1)	1.42	1.48	1.38	enough cells to score
27	Naa50 (N(alpha)-acetyltransferase 50, NatE catalytic subunit)	1.68	2.03	1.75	enough cells to score
28	Slc22a19	-0.05	1.36	1.28	enough cells to score
29	Xpo6 (exportin 6)	-0.15	1.4	1.22	enough cells to score
30	Pik3r5 (phosphoinositide-3-kinase regulatory subunit 5)	0.85	1.59	1.46	enough cells to score
31	A430057O09		1.25	1.23	fewer than 50 cells per well; well left out of scoring
32	Bfsp2 (beaded filament structural protein 2, phakinin)	0.24	1.61	1.69	enough cells to score
33	Map3k10 (mitogen-activated protein kinase kinase kinase 10)	1.16	1.6	1.52	enough cells to score
34	Cpxm1 (carboxypeptidase X, M14 family member 1)	-0.24	1.54	1.74	enough cells to score
35	Gna11 (guanine nucleotide binding protein, alpha 11)	1.21	1.51	1.61	enough cells to score
36	Lrrtm4 (leucine rich repeat transmembrane neuronal 4)	-1.31	1.52	1.13	enough cells to score
37	Mllt1	0.88	1.57	1.45	enough cells to score
38	Zfp790 (zinc finger protein 790)	1.56	1.51	1.73	enough cells to score
39	Trmt44 (tRNA methyltransferase 44)		1.48	1.42	fewer than 50 cells per well; well left out of scoring
40	Cox20 (cytochrome c oxidase assembly protein 20)		1.79	1.49	fewer than 50 cells per well; well left out of scoring

Entries listed so far with an active call, once more:
target gene	p65 translocation robust z-score	nuclear/cytoplasmic p65 ratio, rep 1	nuclear/cytoplasmic p65 ratio, rep 2	low cell count flag
Gzmm (granzyme M (lymphocyte met-ase 1))	-2.13 (active)	1.3	1.16	enough cells to score
